The results in this text go back to publication PMC5663478.

Amino acid sequences for entries named in this document (tags omitted). A change or cut given only in a name is not applied to a line headed by its entry. Residues count along the entry.
UniProt Q02413: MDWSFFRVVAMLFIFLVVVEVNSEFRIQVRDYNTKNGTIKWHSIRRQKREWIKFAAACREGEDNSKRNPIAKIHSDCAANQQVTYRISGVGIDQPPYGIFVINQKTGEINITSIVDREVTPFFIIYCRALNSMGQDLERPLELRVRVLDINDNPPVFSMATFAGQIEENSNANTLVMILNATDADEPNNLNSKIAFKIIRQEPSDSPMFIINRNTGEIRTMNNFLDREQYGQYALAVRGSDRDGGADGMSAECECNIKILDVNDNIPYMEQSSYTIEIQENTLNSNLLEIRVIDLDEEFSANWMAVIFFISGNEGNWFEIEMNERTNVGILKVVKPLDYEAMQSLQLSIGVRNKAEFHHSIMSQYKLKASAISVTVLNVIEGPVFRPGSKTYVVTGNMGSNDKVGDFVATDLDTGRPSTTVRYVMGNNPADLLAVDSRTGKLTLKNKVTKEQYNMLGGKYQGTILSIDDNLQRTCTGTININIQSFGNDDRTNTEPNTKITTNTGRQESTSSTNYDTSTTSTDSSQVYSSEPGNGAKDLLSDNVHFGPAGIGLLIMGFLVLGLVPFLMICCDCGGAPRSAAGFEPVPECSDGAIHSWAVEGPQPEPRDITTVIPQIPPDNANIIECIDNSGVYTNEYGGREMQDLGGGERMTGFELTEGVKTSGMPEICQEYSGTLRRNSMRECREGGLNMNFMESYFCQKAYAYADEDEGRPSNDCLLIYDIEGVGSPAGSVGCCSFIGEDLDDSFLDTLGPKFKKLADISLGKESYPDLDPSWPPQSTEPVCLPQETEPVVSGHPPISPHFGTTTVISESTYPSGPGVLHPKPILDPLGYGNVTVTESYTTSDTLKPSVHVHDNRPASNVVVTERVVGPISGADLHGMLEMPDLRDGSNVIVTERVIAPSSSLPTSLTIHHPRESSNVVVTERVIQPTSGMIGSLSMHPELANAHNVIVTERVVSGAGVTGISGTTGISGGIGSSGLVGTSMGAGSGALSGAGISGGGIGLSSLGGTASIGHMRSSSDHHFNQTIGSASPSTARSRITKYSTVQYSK
Desmoglein 1 (Dsg1), endogenous (human (endogenous in NHEK)): residues 50-1049 of Q02413
Desmoglein 1 (Dsg1) cytoplasmic tail, bait construct pSos-Dsg1: residues 570-1049 of Q02413
UniProt P15924: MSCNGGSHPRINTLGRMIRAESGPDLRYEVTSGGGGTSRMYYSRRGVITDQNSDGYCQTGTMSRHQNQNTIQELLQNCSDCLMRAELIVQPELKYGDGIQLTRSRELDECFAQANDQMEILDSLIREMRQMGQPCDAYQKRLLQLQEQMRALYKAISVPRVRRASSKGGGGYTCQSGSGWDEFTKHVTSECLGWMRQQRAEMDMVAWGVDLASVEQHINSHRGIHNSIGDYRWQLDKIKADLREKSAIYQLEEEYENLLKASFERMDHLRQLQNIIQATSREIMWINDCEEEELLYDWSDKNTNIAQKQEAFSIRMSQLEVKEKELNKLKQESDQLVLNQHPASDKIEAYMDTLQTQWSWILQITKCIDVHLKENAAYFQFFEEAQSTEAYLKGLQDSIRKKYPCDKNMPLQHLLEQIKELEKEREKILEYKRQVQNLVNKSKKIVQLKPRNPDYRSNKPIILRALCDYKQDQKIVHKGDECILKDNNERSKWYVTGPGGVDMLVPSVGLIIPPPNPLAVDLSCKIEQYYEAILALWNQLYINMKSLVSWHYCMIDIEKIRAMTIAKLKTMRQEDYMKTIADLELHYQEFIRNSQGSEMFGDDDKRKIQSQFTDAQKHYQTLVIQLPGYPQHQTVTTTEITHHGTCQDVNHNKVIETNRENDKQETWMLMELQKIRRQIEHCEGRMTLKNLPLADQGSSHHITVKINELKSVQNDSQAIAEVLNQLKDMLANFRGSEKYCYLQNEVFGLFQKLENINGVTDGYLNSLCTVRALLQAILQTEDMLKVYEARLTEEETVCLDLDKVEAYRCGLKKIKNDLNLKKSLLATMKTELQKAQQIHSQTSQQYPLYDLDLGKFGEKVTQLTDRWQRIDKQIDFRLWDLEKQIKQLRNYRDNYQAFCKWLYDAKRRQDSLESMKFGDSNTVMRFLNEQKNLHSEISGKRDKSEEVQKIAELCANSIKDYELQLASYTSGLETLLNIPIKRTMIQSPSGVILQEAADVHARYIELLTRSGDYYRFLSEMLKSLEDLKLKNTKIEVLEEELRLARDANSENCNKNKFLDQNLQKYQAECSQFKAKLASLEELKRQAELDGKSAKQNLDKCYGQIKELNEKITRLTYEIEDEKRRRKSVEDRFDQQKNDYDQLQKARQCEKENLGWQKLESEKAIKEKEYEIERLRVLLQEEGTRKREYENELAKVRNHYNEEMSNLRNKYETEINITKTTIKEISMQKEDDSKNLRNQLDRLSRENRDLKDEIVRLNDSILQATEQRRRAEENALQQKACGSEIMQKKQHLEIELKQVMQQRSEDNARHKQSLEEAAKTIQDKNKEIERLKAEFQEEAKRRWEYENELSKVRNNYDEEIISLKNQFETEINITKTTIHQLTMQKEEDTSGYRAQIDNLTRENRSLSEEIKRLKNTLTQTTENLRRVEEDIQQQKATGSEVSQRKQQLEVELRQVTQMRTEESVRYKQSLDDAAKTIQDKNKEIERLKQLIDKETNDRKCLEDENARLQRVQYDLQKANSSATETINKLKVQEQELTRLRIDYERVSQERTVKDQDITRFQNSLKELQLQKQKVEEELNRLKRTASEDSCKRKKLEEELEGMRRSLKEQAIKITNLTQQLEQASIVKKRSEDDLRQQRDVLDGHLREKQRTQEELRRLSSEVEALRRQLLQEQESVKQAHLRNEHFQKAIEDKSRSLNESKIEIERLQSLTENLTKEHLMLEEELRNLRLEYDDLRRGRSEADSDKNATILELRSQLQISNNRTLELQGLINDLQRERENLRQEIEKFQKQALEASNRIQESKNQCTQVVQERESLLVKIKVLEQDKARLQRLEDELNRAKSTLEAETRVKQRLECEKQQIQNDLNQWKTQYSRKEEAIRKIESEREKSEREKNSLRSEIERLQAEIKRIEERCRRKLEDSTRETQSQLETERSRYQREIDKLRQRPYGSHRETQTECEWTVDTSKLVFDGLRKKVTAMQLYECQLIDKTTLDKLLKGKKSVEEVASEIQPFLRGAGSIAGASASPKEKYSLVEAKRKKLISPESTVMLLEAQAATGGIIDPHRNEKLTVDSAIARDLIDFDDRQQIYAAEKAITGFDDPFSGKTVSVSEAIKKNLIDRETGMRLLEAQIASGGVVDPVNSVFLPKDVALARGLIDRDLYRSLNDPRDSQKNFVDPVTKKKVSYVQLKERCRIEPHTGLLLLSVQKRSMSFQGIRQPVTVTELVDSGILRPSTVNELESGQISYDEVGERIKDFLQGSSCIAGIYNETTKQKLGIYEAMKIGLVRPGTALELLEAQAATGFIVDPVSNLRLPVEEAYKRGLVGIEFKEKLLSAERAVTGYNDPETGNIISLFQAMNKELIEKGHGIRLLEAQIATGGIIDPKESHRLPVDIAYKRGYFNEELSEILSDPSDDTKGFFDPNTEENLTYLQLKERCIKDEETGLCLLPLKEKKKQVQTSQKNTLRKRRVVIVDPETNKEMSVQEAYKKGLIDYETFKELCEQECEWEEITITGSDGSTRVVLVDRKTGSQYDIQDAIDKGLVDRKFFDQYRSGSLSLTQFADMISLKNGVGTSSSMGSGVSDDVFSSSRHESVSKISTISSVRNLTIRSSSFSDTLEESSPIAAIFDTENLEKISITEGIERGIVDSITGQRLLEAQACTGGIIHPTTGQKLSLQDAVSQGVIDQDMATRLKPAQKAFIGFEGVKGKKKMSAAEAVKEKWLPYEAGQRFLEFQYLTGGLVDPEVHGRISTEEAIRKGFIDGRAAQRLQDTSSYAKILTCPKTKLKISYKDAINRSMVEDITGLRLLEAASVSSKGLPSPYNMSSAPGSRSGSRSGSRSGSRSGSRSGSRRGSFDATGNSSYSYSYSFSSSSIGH
UniProt Q9UNS2: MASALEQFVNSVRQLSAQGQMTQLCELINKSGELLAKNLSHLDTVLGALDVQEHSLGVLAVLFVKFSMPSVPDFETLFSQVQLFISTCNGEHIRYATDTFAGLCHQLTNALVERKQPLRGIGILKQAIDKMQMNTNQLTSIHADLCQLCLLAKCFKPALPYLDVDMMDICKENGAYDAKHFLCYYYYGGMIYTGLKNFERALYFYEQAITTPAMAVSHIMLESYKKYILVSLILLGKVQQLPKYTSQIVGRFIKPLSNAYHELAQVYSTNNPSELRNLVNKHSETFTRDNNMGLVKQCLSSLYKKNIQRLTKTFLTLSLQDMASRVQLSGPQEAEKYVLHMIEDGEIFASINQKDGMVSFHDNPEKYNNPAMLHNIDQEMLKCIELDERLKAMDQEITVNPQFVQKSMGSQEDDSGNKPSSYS

Assay [1] deals with Desmoglein 1 (Dsg1) cytoplasmic tail, bait construct pSos-Dsg1 (UniProt Q02413). The assay can be described thus: two-hybrid; CytoTrap (Stratagene) in temperature-sensitive cdc25H S. cerevisiae; pSos bait, myristoylated pMyr target; growth on galactose at 37°C confirms interaction, 25°C permissive.
The target of assay [2] is Desmoglein 1 (Dsg1), endogenous (human (endogenous in NHEK)) (UniProt Q02413). The assay can be described thus: proximity ligation; DUOLink PLA with antibody pairs on fixed NHEKs after 1 day of differentiation in high calcium; proximity 40-100 nm; with siRNA against COPS3, DSG1, DP or scramble.
The target in assay [3] is Desmoplakin (Dp), endogenous (human (endogenous in NHEK)) (UniProt P15924). The description is as above.
Assay [4] has the same target. The experiment in a line: co-IP; immunoprecipitation of endogenous Dp from NHEKs after 1 day of differentiation; RIPA buffer (500 mM NaCl, 50 mM Tris pH 7.6, 10 mM MgCl2, 1% Tx-100, 0.1% SDS, 0.5% deoxycholate); Protein A/G beads.

Results are given in words; binding and its absence hold for the method and conditions named. For some of these results: Binding seen in cells or lysates may run through a third protein. Some binding calls cover weakened binding; strength is not graded here.

For the substance “Cops4, fourth subunit of the COP9 signalosome (CSN), two-hybrid construct (from UniProt Q9BT78 1-406)”, in assay [1], the binding entry is listed as “no binding”.
For “Cops3, third subunit of the COP9 signalosome (CSN), endogenous (from UniProt Q9UNS2 1-423)”, the binding entry in assay [2], in assay [3] and in assay [4] was “binds” throughout.
